Substitutions are numbered along the chain they refer to. These are yes or no findings as the source states them, for the method shown. Some results given as binding are weak or reduced against the parent protein; the word gives no strength.

The text below walks through data of US20230322953A1.

B1: PR001046 (anti-BCMA HCAb, clone 1005P63B7) (antibody, human IgG1, V domains shown)
VH: EVQLVETGGGLIQPGGSLRLSCAASGFTVSDNYMTWVRQAPGKGLEWVSVIFSGGNTYYADSVKGRFTISRDNAKNTLYLQMNSLRAEDTALYYCARRNYDDTRGTDVFDIWGQGTMVTVSS
B2: PR000943 (anti-BCMA HCAb, clone 1005P16A10) (antibody, human IgG1, V domains shown)
VH: EVQLVETGGGLIQPGGSLRLSCAASGFPVSSNYMSWVRQAPGKGLEWVSVIFSGGRTYYADSVKGRFTISRDNSKNTLYLQMNSLRAEDTAVYYCARRNWIDGRDAFDIWGQGTMVTVSS
B3: PR001035 (anti-BCMA HCAb, clone 1005P36F3) (antibody, human IgG1, V domains shown)
VH: B2 VH with P28T, S35T, R56S, N99I, W100A, I101V, D102A, R104H, A106V

For the experiment, the target named is cynomolgus monkey BCMA on cells (HEK293T/cyno BCMA) (cynomolgus monkey). Nature of the experiment: FACS, HEK293T/cyno BCMA cells. In general terms: A flow cytometer gives signals particle by particle.
On to B1, for which the binding entry was “binds”.

Turning to B2, the binding entry is given as “binds”.

For the molecule B3, the binding entry is on record as “binds”.
